Where a name gives a salt, the structure may show the parent alone. This is one part of the list. Small differences around the control level are noise.
Legend:
Details in all cases: 5 µM; treatment: days 7-14 after plating, readout day 21
[1] = system: hPSC-derived cortical neurons (WA09); assay: nucleus area z-score vs screen plate; higher = larger nuclei (more mature)
[2] = system: hPSC-derived cortical neurons (WA09); assay: total neurite length per nucleus (MAP2) z-score; higher = more neurite growth
[3] = system: hPSC-derived cortical neurons (WA09); assay: nucleus roundness z-score vs screen plate; higher = rounder nuclei (more mature)
[4] = system: hPSC-derived cortical neurons (WA09); assay: KCl-induced FOS+/EGR-1+ double-positive nuclei fraction z-score (KCl minus unstimulated); higher = stronger activity-induced IEG response

SMILES | nucleus area z-score [1] | total neurite length per nucleus (z-score) [2] | nucleus roundness z-score [3] | KCl-induced FOS+/EGR-1+ double-positive nuclei fraction z-score [4]
CCC[C@@H]1C[C@@H](C(=O)N[C@@H]([C@H]2O[C@H](SC)[C@H](O)[C@@H](O)[C@H]2O)[C@@H](C)O)N(C)C1 [Lincomycin HCl] | -0.355 | 0.61 | 0.236 | 0.213
CCN(CC)CCNC(=O)c1c(C)[nH]c(/C=C2\C(=O)Nc3ccc(F)cc32)c1C [Sunitinib Malate] | -5.54 | -2.25 | -2.57 | -0.05
C=C1[C@H](CO)[C@@H](O)C[C@@H]1n1cnc2c(=O)[nH]c(N)nc21 [Entecavir Hydrate] | 1.95 | 1.59 | 1.47 | 1.7
Cc1nc2ccc(-n3ncc(C(=O)c4cc5ccccc5[nH]4)c3N)cc2[nH]1 | 1.11 | 0.553 | 1.32 | 0.894
CC1(C)[C@@H](O[C@H]2O[C@H](C(=O)O)[C@@H](O)[C@H](O)[C@H]2O[C@@H]2O[C@H](C(=O)O)[C@@H](O)[C@H](O)[C@H]2O)CC[C@]2(C)[C@H]3C(=O)C=C4[C@@H]5C[C@@](C)(C(=O)O)CC[C@]5(C)CC[C@@]4(C)[C@]3(C)CC[C@@H]12 [Glycyrrhizin (Glycyrrhizic Acid)] | 0.062 | 0.568 | 1.23 | -0.257
CN1CC[C@H](c2c(O)cc(O)c3c(=O)cc(-c4ccccc4Cl)oc23)[C@H](O)C1 [Flavopiridol (Alvocidib)] | -18.4 | -5.67 | -8.9 | -0.866
CC(=O)OCC(COC(C)=O)OC(C)=O [Triacetin] | 0.696 | 1.11 | 1.18 | 0.73
CCCCC(CC)COC(=O)CC(C(=O)OCC(CC)CCCC)S(=O)(=O)O (configuration not stated) [Docusate Sodium] | 0.51 | 0.479 | -0.358 | 1.1

Entries of single compounds, looked up by structure. Values in the order: nucleus area z-score [1]	total neurite length per nucleus (z-score) [2]	nucleus roundness z-score [3]	KCl-induced FOS+/EGR-1+ double-positive nuclei fraction z-score [4]
CC(=O)OCC(COC(C)=O)OC(C)=O [Triacetin] reads 0.696	1.11	1.18	0.73
CCC[C@@H]1C[C@@H](C(=O)N[C@@H]([C@H]2O[C@H](SC)[C@H](O)[C@@H](O)[C@H]2O)[C@@H](C)O)N(C)C1 [Lincomycin HCl] reads -0.355	0.61	0.236	0.213
